# Results of single-concentration screens

Chains of the proteins cited; added tags and fusions are not shown.
UniProt I6X8D2, whole entry: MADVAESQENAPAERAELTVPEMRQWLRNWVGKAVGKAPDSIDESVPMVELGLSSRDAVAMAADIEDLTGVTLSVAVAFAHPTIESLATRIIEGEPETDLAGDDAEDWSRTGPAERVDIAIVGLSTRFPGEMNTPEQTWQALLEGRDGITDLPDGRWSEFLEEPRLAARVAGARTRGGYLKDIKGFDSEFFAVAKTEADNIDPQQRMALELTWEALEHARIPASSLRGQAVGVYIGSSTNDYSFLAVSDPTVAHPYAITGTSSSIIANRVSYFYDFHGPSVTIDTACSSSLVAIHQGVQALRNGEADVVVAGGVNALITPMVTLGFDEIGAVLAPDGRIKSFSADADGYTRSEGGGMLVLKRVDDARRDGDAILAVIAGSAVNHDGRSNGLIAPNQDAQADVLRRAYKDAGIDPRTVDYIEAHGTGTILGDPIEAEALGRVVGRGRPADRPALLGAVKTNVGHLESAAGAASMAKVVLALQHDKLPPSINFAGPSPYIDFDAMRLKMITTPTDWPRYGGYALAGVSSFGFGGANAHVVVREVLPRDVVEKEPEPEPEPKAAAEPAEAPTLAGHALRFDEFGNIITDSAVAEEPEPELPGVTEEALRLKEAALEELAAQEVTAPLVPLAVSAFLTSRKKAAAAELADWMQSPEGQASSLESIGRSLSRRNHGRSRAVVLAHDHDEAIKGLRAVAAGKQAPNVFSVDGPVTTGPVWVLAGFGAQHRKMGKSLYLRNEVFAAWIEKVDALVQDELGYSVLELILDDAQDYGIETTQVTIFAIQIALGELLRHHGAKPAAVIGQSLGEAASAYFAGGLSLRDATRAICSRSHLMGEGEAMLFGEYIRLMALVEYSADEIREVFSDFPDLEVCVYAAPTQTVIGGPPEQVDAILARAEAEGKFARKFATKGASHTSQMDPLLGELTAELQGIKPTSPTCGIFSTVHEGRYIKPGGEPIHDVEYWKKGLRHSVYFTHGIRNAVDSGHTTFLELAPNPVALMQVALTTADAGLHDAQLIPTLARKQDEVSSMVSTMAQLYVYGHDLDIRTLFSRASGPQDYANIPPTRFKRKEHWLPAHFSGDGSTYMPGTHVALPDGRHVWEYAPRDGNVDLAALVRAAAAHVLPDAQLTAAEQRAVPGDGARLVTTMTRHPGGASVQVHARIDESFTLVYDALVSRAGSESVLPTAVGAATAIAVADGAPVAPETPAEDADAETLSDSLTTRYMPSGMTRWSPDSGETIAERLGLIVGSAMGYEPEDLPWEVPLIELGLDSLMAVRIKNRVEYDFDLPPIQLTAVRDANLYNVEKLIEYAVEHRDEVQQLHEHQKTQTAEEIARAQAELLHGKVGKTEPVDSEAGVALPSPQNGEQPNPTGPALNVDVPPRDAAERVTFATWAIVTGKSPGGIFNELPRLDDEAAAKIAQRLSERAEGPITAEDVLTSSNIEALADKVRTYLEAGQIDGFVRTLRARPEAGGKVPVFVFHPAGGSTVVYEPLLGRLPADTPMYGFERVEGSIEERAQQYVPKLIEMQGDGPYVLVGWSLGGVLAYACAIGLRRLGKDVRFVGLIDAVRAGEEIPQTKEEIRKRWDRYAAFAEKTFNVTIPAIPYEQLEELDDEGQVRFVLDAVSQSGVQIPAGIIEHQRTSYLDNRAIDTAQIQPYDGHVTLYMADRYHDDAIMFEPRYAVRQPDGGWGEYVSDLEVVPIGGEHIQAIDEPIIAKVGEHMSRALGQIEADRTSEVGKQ

Measurements from “University of Dundee, Small-Polar-MMV Screening Library” (2021), ChEMBL document CHEMBL3988442.

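Polyketide synthase Pks13, Mycobacterium tuberculosis (UniProt I6X8D2). Enzyme assay of the thioesterase domain of polyketide synthase 13; the read-out is not stated. Concentration: 30 µM. Higher reads as stronger inhibition (inferred from which compounds were picked for retests). About 67,000 compounds were tested under these conditions; 0.46% (about 300) showed 50% or more at least once.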

Each number is a percent effect as filed.
How 0% and 100% were set is not recorded. Most values in the screen are low, and negative values occur.
Compounds were drawn at random from those tested, without regard to their results.

With CCN1CCN(CC(O)c2ccc(OC(F)(F)F)cc2)CC1 (stereo not given) the screen gave -14.43%.
With Cn1ncc2ccc(C3CCCN(C(=O)Cc4cccs4)C3)nc21 (stereo not given) the screen gave -20.09%.
With Cc1cc(NC(=O)NCc2ccc(C)s2)no1 the screen gave -30.76%.
With CCOCCn1nc(C)cc1C(=O)N1C[C@@H](C)[C@](O)(C2CC2)C1 the screen gave -21.13%.
With COc1ncccc1CN1C[C@@H]2COC[C@]2(COCC2CC2)C1 the screen gave -18.8%.
With Cn1cc(C2COC3(CCN(C(=O)Cc4ccccc4)CC3)C2)cn1 (stereo not given) the screen gave -7.929%.
With CCN(C(=O)c1cccc2c1OCO2)c1ccccc1 the screen gave -7.346%.
With c1ccc(CCNC2CCc3ncnn3C2)nc1 (stereo not given) the screen gave -4.684%.
With NS(=O)(=O)c1cccnc1NCc1ccco1 the screen gave -17.45%.
With Cc1ccc2c(c1)CN(CC(=O)NCCc1ccc(F)cc1)CC(C)O2 (stereo not given) the screen gave -17.92%.
With CN(C(=O)Nc1ccncc1)C1CCN(c2ccc(Cl)cc2)CC1 the screen gave -14.61%.
With Cn1cc(N2CCC(NC(=O)c3c(F)cccc3Cl)C2=O)cn1 (stereo not given) the screen gave -27.14%.
With O[C@H]1CCN(CCCOc2ccccc2F)C[C@@]12CCCO2 the screen gave -4.488%.
With CC(SCCC(=O)NC(N)=O)c1c(F)cccc1F (stereo not given) the screen gave -28.24%.
With CCn1c(CN2CCN(CC(N)=O)CC2)nc2c(F)cccc21 the screen gave -25.71%.
With CCCOCCN1CCN(c2ncnc3[nH]ccc23)CC1 the screen gave -8.394%.
With CC(C)C1CCCN1CC(=O)NCc1ccc(OCC(N)=O)cc1 (stereo not given) the screen gave -14.4%.
With COc1nn(C)c2c1CCCN(C(=O)c1cnccn1)C2 the screen gave -17.71%.
With Cc1noc(C)c1C(=O)N1C[C@H]2CC[C@@H]1CN(c1cnccn1)C2 the screen gave -13.48%.
With Cn1ccnc1CN1C[C@@H](CN2CCCCC2)[C@@H](CO)C1 the screen gave 6.646%.
With O=S1(=O)NC(c2ccnc(N3CCOCC3)n2)=Nc2ccccc21 the screen gave 2.621%.
With CCN(CC)CCN1CCO[C@H]2[C@@H](OCc3ccccn3)CC[C@@H]21 the screen gave -28.3%.
With Cc1cc(CNC2(c3ccc(Cl)cc3)CC2)no1 the screen gave -44.23%.
With CC(C)Oc1ccc(CSc2nnc(CN3CCCC3=O)o2)cc1 the screen gave -30.23%.
With CN(CC(=O)N(C)C(c1ccc(Cl)cc1)c1cccnc1)C1CC1 (stereo not given) the screen gave -13.62%.
With CC(C)NC(=O)N1CCN(S(C)(=O)=O)CC2(CNC(=O)C2)C1 (stereo not given) the screen gave -2.009%.
With Cc1cc(N[C@H](CO)c2ccccc2)n2nc(C)cc2n1 the screen gave -6.176%.
With Cc1nn(C)cc1CN(C)C(=O)c1cccnc1 the screen gave -11.55%.
With Cn1ncc2c(=O)[nH]c(CN3CCc4ccccc4C3)nc21 the screen gave -8.454%.
With Cc1ccc(NC2CCN(C(=O)c3cc[nH]n3)CC2)nn1 the screen gave -5.617%.
With Brc1ccc(CNCc2nnc3n2CCCCC3)s1 the screen gave -28.57%.
With COCC1CCN(c2cc(C3CN(C)CCO3)nc(C)n2)CC1 (stereo not given) the screen gave -16.81%.
With COc1cc(Cl)cc(CN2CCCC(N3CCCC3)C2)c1OC (stereo not given) the screen gave -19.42%.
With CC(C)NC(=O)N1CCn2c(nnc2C2CCCN2)C1 (stereo not given) the screen gave -6.899%.
With COC1CCN(c2ccc(NC(=O)Cn3cccn3)cc2)CC1 the screen gave -14.56%.
With Cc1ccc(-c2cc(CNC(=O)N3CCCN(C)CC3)on2)cc1 the screen gave -0.1392%.
With CCN(CC)c1ccc(C(=O)NCc2cccnc2-n2cncn2)cn1 the screen gave -8.491%.
With COc1ccc(-n2cc(CNC(=O)c3ccccn3)nn2)cc1 the screen gave -13.87%.
With O=C(c1cccc2c1OCO2)N1CCCC(n2ccnc2)C1 (stereo not given) the screen gave -13.85%.
With CCOc1ccc(C(=O)N(Cc2cnn(C)c2)C(C)C)cc1 the screen gave -16.96%.
With CN1CCN(CCOc2ccc(NC(=O)c3ccncc3)cc2)CC1 the screen gave -40.05%.
With Cc1noc(C)c1CN1CCC2(CC1)CC(Oc1cccnc1)C2 the screen gave -29.24%.
With O=C([C@H]1CC[C@@H]2[C@@H](CCN2Cc2ccsc2)O1)N1CCOCC1 the screen gave -17.58%.
With CCS(=O)(=O)NCCNCc1ccc(Cl)c2cccnc12 the screen gave -21.87%.
With CN(C(=O)CN1CCCC1Cc1ccccc1)c1ccccc1 (stereo not given) the screen gave 1.015%.
With Cn1c(C2CC2)nc2c1CCN(CC(=O)Nc1ccncc1)C2 the screen gave -13.33%.
With O=C(CN1CCCC(Cn2cncn2)C1)NCCc1cccs1 (stereo not given) the screen gave -21.6%.
With COCCN(Cc1ccccn1)C(=O)CC1OCCc2ccccc21 (stereo not given) the screen gave -25.84%.
With CCS(=O)(=O)NC(CCSC)C(=O)Nc1cccc(C)c1C (stereo not given) the screen gave -4.152%.
With Cn1ccnc1CN1C[C@H](N2CCOCC2)[C@@H]2OCCC[C@@H]21 the screen gave -10.54%.
With CN1CCC(N(C)C(=O)CSc2ccc(F)c(F)c2)C1=O (stereo not given) the screen gave -23.2%.
With CCc1nc(CNc2ccc(F)cc2I)no1 the screen gave -12.12%.
With C[C@@H]1CN(C2CCCCC2)CC[C@@]1(O)C1CCOCC1 the screen gave 11.63%.
With Cc1nnc([C@H]2CC[C@@H]3[C@@H](CCN3CC3CCOCC3)O2)o1 the screen gave -25.54%.

6 of the entries, repeated:

{"compound": "CN1CCN(CCOc2ccc(NC(=O)c3ccncc3)cc2)CC1", "percent effect": -40.05}
{"compound": "CCc1nc(CNc2ccc(F)cc2I)no1", "percent effect": -12.12}
{"compound": "Cn1c(C2CC2)nc2c1CCN(CC(=O)Nc1ccncc1)C2", "percent effect": -13.33}
{"compound": "CN(CC(=O)N(C)C(c1ccc(Cl)cc1)c1cccnc1)C1CC1", "stereo": "stereo not given", "percent effect": -13.62}
{"compound": "CCCOCCN1CCN(c2ncnc3[nH]ccc23)CC1", "percent effect": -8.394}
{"compound": "O[C@H]1CCN(CCCOc2ccccc2F)C[C@@]12CCCO2", "percent effect": -4.488}